Patent US20120202840A1, “Use of Flubendazole and Vinca Alkaloids for Treatment of Hematological Diseases” (priority 2009, published 2012)

Tests used:
Format in all cases: cell-based
A549 = experiment: MTS assay, A549; details: Homo sapiens
Method: (§1) Next, whether microtubule inhibition was functionally important for flubendazole's cytotoxicity was determined.
(§2) Leukemia (U937, MDAY, CEM, CEM-VBL) and solid tumor cell lines (PPC-1, HeLa) were cultured in RPMI 1640 medium. The epidermoid carcinoma cell lines KB-3-1 and KB-4.0-HTI^23 were grown in Dulbecco's Modified Eagle Medium. The lung carcinoma cell lines A549 and A549.EpoB40 were grown in RPMI with the latter supplemented with 20% fetal calf serum (FCS), and 40 nM epothilone B.^24 Leukemia cell lines OCI-AML2, CEM, and NB4 and all the myeloma cell lines (OPM2, KMS11, JJN3 LP1, H929, L1, KMS12, KSM18 and OCI My5) were maintained in Iscove's Modified Dulbecco's Medium (IMDM). TEX cells were maintained in IMDM, 15% FCS, 1% penicillin-streptomycin, 2 mM L-glutamine, 20 ng/mL SCF, 2 ng/mL IL-3. Unless otherwise noted, all media were supplemented with 10% FCS, 100 units/mL of streptomycin and 100 μg/mL of penicillin (all from Hyclone, Logan, Utah). Cells were incubated in a humidified air atmosphere containing 5% CO2 at 37° C.
(§3) Cell growth and viability was measured using the 3-(4,5-dimethylthiazol-2-yl)-5-(3-carboxymethoxyphenyl)-2-(4-sulfophenyl)-2H-tetrazolium inner salt (MTS) reduction assay (Promega, Madison, Wis.) according to the manufacture's protocol and as previously described^25. […] Optical density (OD) was measured at 490 nm.

A549.EpoB40 = experiment: MTS assay, A549.EpoB40 (β-tubulin mutant)
Method: as §1, §2, §3

KB-4.0-HTI = experiment: MTS assay, KB-4.0-HTI (α-tubulin mutant)
Method: as §1, §2, §3

KB-3-1 = experiment: MTS assay, KB-3-1 wild type; details: Homo sapiens
Method: as §1, §2, §3

[1] = ratio of IC50 values of Table 1

SMILES: COc1cc2c(c(OC)c1OC)-c1ccc(OC)c(=O)cc1[C@@H](NC(C)=O)CC2 [colchicine]
- IC50 (A549): 0.09 ± 0.01 µM
- IC50 (A549.EpoB40): 0.06 ± 0.01 µM
- IC50 lower in A549.EpoB40 than in A549 control cells (A549.EpoB40; [1]): 1.5 fold
- IC50 (KB-4.0-HTI): 41.6 ± 5.5 µM
- IC50 higher in KB-4.0-HTI than in KB-3-1 wild type cells (KB-4.0-HTI; [1]): 2.5 fold
- IC50 (KB-3-1): 14.9 ± 4.5 µM
